For experiment [1], the target named is Navβ1 (human) (UniProt Q07699). As to the kind of experiment: competition FACS with Nav1.7α-Navβ-subunit bispecific ISVDs.
Experiment [2] deals with Navβ2 (human) (UniProt O60939). The experiment in a line: binding ELISA.
The target in experiment [3] is Navβ2 (human) (UniProt O60939). As to the kind of experiment: binding FACS and binding ELISA with purified monovalent protein.
The target in experiment [4] is Navβ2 (human) (UniProt O60939). As to the kind of experiment: classification of the 2nd ISVD.
Experiment [5] addresses Navβ2 (human) (UniProt O60939). As to the kind of experiment: binding ELISA and binding FACS with purified monovalent protein. (In general: In an ELISA, binding on a coated surface is turned into a signal by an enzyme label.)
Experiment [6] addresses Navβ1 (human) (UniProt Q07699). As to the kind of experiment: binding ELISA.
In experiment [7] the target is Navβ1 (human) (UniProt Q07699). As to the kind of experiment: binding ELISA and binding FACS with purified monovalent protein.

The chains behind the UniProt entries cited, without tags or fusion partners. Where a name states a change or a piece, a line headed by the entry shows the natural chain unless it says otherwise.
UniProt Q07699: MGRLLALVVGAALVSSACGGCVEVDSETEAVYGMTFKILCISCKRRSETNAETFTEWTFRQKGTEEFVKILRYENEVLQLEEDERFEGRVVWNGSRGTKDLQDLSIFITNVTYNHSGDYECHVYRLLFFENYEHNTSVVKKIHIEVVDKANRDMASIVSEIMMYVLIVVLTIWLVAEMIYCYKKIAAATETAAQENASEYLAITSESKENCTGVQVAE
UniProt O60939: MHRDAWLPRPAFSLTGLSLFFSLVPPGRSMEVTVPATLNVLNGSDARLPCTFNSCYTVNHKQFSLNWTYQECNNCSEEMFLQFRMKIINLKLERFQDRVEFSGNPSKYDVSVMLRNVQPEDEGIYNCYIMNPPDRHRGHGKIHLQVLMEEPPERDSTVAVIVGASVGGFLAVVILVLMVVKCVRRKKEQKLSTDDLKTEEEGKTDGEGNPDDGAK

These are yes or no findings as the source states them, for the method shown. Some entries that bind do so weakly or less than the wild type.

B1: F0103495F09 (VHH)
VHH: EVQLVESGGGLVQAGSSLSLSCAASGRALSTYAMGWFRQAPGKEREFVARISRSGITTYYTDSVKGRFTISRDRAKDTVYLQMNSLKPEDTAIYLCAADASTNPAGYYLRNRYDYWGQGTLVTVSS
As for B1, the binding result in experiment [1] is reported as “binds”.

B2: F0103240B04 (VHH)
VHH: EVQLVESGGGLVQAGGSLRLSCAASGGTGRRYAMGWFRQAPGKEREIVAAIRWSAMTYYADDGKGRFTISRDNAKNTVYLQMNSLKPEDTAIYYCAYTWDYFKYDQVRAYRGWGQGTLVTVSS
For B2, the binding result in experiment [2], in experiment [3] and in experiment [4] was “binds” throughout.

B3: F0103505D08 (VHH)
VHH: EVQLVESGGGLVQAGGSLRLSCVTSGRTSDLSTMNWFRQAPGKEREFVARITRRGSTYYAESVKERFIISRDNAKNTVYLQMNSLKPEDTANYYCTAASEMGYHYRGQGTLVTVSS
Regarding B3, the binding entry in experiment [2] and in experiment [5] was “binds” in each case.

B4: F0103492E09 (VHH)
VHH: EVQLVESGGGLVQAGGSLRLSCAASKSILSFAYMRWYRQAPGKQREFVASIAIGGATSYTDSVKGRFTISRDNAKNTVYLQMNSLKPEDTAVYYCSAPAGQYRGQGTLVTVSS
Take B4: the binding entry in experiment [2] and in experiment [5] was “binds” throughout.

B5: F0103478E09 (VHH)
VHH: EVQLVESGGGLVQAGGSLRLSCAASGRAFSTLAMGWFRQAPGKEREFVAAISRNGNNSATGDSLKGRFTISRDSTKSTVFLQMNTLKPEDTAVYYCAAISTPSASHPYVRKESYRYWGQGTLVTVSS
On to B5, for which the binding entry in experiment [6] and in experiment [7] was “binds” each time.

B6: F0103500E03 (VHH)
VHH: EVQLVESGGGLVQPGGSLRLSCAASGRTFSRYQMGWFRQAPGKEREFVAYISWSGSTRYVDSVKGRFTISRDNAKNTVYLQMNSLKPEDTAVYHCAAGTAGIISSRPETYDSWGQGTLVTVSS
With B6, the binding result in experiment [2] and in experiment [5] was “binds” each time.
